Reference: paper PMC5945610
These are yes or no findings as the source states them, for the method shown. In cells and extracts the contact can be indirect. A result given as binding can be weak or reduced; the word gives no strength. Sequences can lack the tags named with a protein.

Columns and labels:
[1] = biological target: core domain of USP7 (human); experiment: co-IP; HEK293 cells transfected with tagged constructs; 3 ug antibody overnight at 4 C, protein A + G agarose beads, immunoblot; IgG as negative control
[2] = biological target: C-terminal domain of USP7 (human); experiment: as above

B1: HA-TSPY1 (protein, UniProt Q01534 1-308)
chain: MRPEGSLTYRVPERLRQGFCGVGRAAQALVCASAKEGTAFRMEAVQEGAAGVESEQAALGEEAVLLLDDIMAEVEVVAEEEGLVERREEAQRAQQAVPGPGPMTPESAPEELLAVQVELEPVNAQARKAFSRQREKMERRRKPHLDRRGAVIQSVPGFWANVIANHPQMSALITDEDEDMLSYMVSLEVGEEKHPVHLCKIMLFFRSNPYFQNKVITKEYLVNITEYRASHSTPIEWYPDYEVEAYRRRHHNSSLNFFNWFSDHNFAGSNKIAEILCKDLWRNPLQYYKRMKPPEEGTETSGDSQLLS
Question: What does the source list for B1?
Answer: binding [1]: binds; binding [2]: binds
